Binding data for one molecule are collected here from PMC4182512.

Results are given in words; binding and its absence hold for the method and conditions named. Sequences can lack the tags named with a protein.

Test [1] concerns the target PssA (bacterial two-hybrid fusion with an adenylate cyclase fragment) (Rhizobium leguminosarum bv. trifolii TA1) (UniProt Q52856). The test is described as follows: two-hybrid; bacterial two-hybrid (adenylate cyclase T18/T25) in E. coli DHM1 cya reporter strain grown at 30°C; baits in pUT18 or pUT18C, preys in pKT25; blue colonies on LB with X-gal and IPTG and β-galactosidase activity (U/mg bacterial dry weight) significantly higher than in the control.

For test [2], the target named is PssC (bacterial two-hybrid fusion with an adenylate cyclase fragment) (Rhizobium leguminosarum bv. trifolii TA1). Described as above.

B1: PssP (bacterial two-hybrid fusion with an adenylate cyclase fragment) (protein, UniProt Q27SV1 1-746)
chain: MLSPDKLTPRIDPSRDTGNEADFIDFDKLIAIARRQWRMVAACGFAFAILGIVYVLTSVPVYTADTSVLIDRSDSQVINQLAAFGQMDDDEGTVLSQVELLKSDTIAYAVVDKLKLVDNPEFMGPKSSLFSVSTLKSFMNFRSWFADDAVVAPDPEMRRRGAAETVAGNIDVERVGRSYVLDVSYTAQSPGLARDIAAGIADVYLVDKLNSKYEATRRAGQWLQERIEELRQQALDTDLAVQKFRGEHGLVEAGSTTLISEQQLSEINTQLINAQAETAKAEARYARVKSIIDAKQTDAIVTDVLDSSISNDLRKKYLEASKLETEIEARLGPDHVQAVRLRAEMEEYKRLMFDELNRIAESYQSELQVAKSRENSLRDSVTQATGVATAGETQVQLRELERTRDTYKNLYQSFLTRYQEAIQQQSFPITAARIITTAETRTKPSAPKRALVVAFAMFVGCAFGSGIAAFREFRDRSSAPATMSVTCSMSSLSVSCRSLKITSTIRRSLIPAIREHCQGGKTTTYVEEHPLSAFAETLRSAKIAIDLSAADQRCKVIGVVSSLPGEGKSTTSINFAKLVAMQGARCLLIDGDMRNPGATRAIGRHAEAGLLEAIVDSRPLKDLILLDPKTKLAFLPTVARYRVPHSSELLASRGMDQLLQTARQSFDYIIVDLPPLAPVVDARAINSKLDAVVFVIEWGKTSRKVVQSTLLSEPELYAKCVGTILTKVDPSQMKRLPDIRFERVLL
Turning to B1, the binding result in test [1] and in test [2] was “no binding” each time.
